Results on four molecules are retold here after patent US20260146089A1.

By UniProt entry, the sequences of proteins in these tests, tags left out. Where a name states a change or a piece, a line headed by the entry shows the natural chain unless it says otherwise. Residues count along the entry.
UniProt P20138, residues 18-364: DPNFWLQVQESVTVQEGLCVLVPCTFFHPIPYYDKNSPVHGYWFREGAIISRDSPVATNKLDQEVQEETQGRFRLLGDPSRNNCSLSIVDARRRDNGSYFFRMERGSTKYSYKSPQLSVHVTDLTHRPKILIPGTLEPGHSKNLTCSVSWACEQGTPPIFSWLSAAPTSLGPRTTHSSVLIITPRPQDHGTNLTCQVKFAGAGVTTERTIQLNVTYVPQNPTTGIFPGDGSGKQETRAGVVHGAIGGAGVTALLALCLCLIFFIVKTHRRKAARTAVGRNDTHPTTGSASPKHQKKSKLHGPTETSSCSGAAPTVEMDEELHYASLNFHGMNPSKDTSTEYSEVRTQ
UniProt P07766: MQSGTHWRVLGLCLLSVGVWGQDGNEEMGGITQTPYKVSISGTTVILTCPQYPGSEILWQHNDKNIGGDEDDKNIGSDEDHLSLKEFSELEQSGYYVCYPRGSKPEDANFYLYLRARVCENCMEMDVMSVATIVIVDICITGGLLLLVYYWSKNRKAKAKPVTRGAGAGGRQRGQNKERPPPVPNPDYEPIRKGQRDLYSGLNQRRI

One assay addresses CD33 on U937 cells (UniProt P20138). In words: FACS on U937 cells.
In assay [1] the target is human CD3ε on the cell surface (Jurkat cells, Th1 cells) (human) (UniProt P07766). Put plainly: FACS on Jurkat cells.
For assay [2] the target is unchanged. In words: FACS on Jurkat cells, scFv-Fc format.

Positions count from the first letter of the chain named. Results are given in words; binding and its absence hold for the method and conditions named. Some binding calls cover weakened binding; strength is not graded here. For part of these data: Where a sequence is shown, tags or fusion partners need not be part of it.

B1: multispecific molecule ("1+1" format) with the anti-CD3 07B09 antibody and the anti-CD33 antibody 3P14 (bispecific antibody, V domains shown)
VH 1: EVQLVESGGGLVQPGGSLRLSCAASGFTFSSYWMTWVRQAPGKGLEWVANMRKDGSEKYYVDSVKGRFTISRDNAKNSLYLHMNSLRAEDTAVYYCARERSTGYFDYWGQGTLVIVSS
VL 1: DIQMTQSPSTLSASVGDRVTITCRASQRISTWLAWYQQKAGKAPKLLIYKASSLESGVPSRFSGSGSGTEFTLTIRSLEPDDFATYYCQQYISYTWTFGQGTKVEIK
VH 2: EVQLLESGGGLVQPGGSLRLSCAASGFTFSTYAMSWVRQAPGKGLEWVSAISGRGGSTYYTDSVKGRFTISRDNSKNTVSLQMNSLRAEDTAVYYCAGRGDYYYYYGMDVWGQGTTVTVSA
VL 2: DIVMTQSPLSSPVTLGQPASFSCRSSQSLVYSDGNTYLSWLQQRPGQPPRLLIYKISNRFSGVPDRFSGSGAGTDFTLKISRVEAEDVGVYYCMQSTQFPHTFGQGTKLEIK
As to B1, the binding entry (in the assay with CD33 on U937 cells; in assay [1]) was “binds” in each case.

B2: 07B09 scFv-Fc bivalent fusion molecule (Fc fusion)
VH: B1 VH 1
VL: B1 VL 1
Turning to B2, the binding entry in assay [2] was “binds”.

B3: 12C08 scFv-Fc bivalent fusion molecule (Fc fusion)
VH: EEQLVESGGGLVQPGGSLRFSCEVSGFTFRSYWMSWVRQAPGKGLEWVANIKEDGSEKYYVDSVKGRFTISRDNAKNSLYLQMNSLRAEDTAVYYCARERREGYFDQWGQGTLVTVSS
VL: B1 VL 1 with S14F, R28S, S30G, T31S, A40P, K45D, R76S, E79Q, I92K, T95S
For B3, the binding result in assay [2] is given as “binds”.

B4: multispecific molecule ("1+1" format) with the anti-CD3 12C08 antibody and the anti-CD33 antibody 3P14 (bispecific antibody, V domains shown)
VH 1: B3 VH
VL 1: B1 VL 1 with S14F, R28S, S30G, T31S, A40P, K45D, R76S, E79Q, I92K, T95S
VH 2: B1 VH 2
VL 2: B1 VL 2
For B4, the binding result (in the assay with CD33 on U937 cells; in assay [1]) was “binds” each time.
